Laboratory results as given in the supplement of paper PMC8728848.
The other results are listed elsewhere or left out.

How the values were obtained:
Assay in all cases: glycan array binding signal (z-score within array); higher = stronger binding
Settings in all cases: glycan notation: IUPAC condensed, linker removed
[1] = biological target: GlcNAc(b1-4)GlcNAc(b1-4)GlcNAc(b1-4)GlcNAc(b1-4)GlcNAc
Summary of the method: (§1)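 Columns mapping to the same glycan were averaged after glycan names were converted to IUPAC-condensed notation. The data come from 3228 arrays in the Consortium for Functional Glycomics database, limited to those with an available protein sequence. Binding is reported as a within-array Z-score averaged across arrays of one protein sequence and across linkers.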

[2] = biological target: GlcNAc(b1-4)GlcNAc(b1-4)GlcNAc(b1-4)GlcNAc(b1-4)GlcNAc(b1-4)GlcNAc
Summary of the method: as §1

[3] = biological target: GlcNAc(b1-4)[GlcNAc(b1-6)]GalNAc
Summary of the method: as §1

[4] = biological target: GlcNAc(b1-6)Gal(b1-4)GlcNAc
Summary of the method: as §1

GlcNAc(b1-6)GalNAc = biological target: GlcNAc(b1-6)GalNAc
Summary of the method: as §1

[5] = biological target: GlcNAc6S(b1-3)Gal(b1-4)GlcNAc
Summary of the method: as §1

Kdn(a2-3)Gal(b1-3)GalNAc = biological target: Kdn(a2-3)Gal(b1-3)GalNAc
Summary of the method: as §1

Kdn(a2-3)Gal(b1-3)GlcNAc = biological target: Kdn(a2-3)Gal(b1-3)GlcNAc
Summary of the method: as §1

Kdn(a2-3)Gal(b1-4)Glc = biological target: Kdn(a2-3)Gal(b1-4)Glc
Summary of the method: as §1

Kdn(a2-3)Gal(b1-4)GlcNAc = biological target: Kdn(a2-3)Gal(b1-4)GlcNAc
Summary of the method: as §1

[6] = biological target: Kdn(a2-3)Gal(b1-4)[Fuc(a1-3)]GlcNAc
Summary of the method: as §1

Kdn(a2-6)Gal(b1-4)GlcNAc = biological target: Kdn(a2-6)Gal(b1-4)GlcNAc
Summary of the method: as §1

[7] = biological target: Man(a1-2)Man(a1-2)Man(a1-3)Man
Summary of the method: as §1

[8] = biological target: Man(a1-2)Man(a1-2)Man(a1-6)[Man(a1-3)]Man
Summary of the method: as §1

Man(a1-2)Man(a1-3)Man = biological target: Man(a1-2)Man(a1-3)Man
Summary of the method: as §1

[9] = biological target: Man(a1-2)Man(a1-3)[Man(a1-2)Man(a1-6)]Man
Summary of the method: as §1

[10] = biological target: Man(a1-2)Man(a1-3)[Man(a1-2)Man(a1-6)]Man(a1-6)[Man(a1-2)Man(a1-2)Man(a1-3)]Man
Summary of the method: as §1

[11] = biological target: Man(a1-2)Man(a1-3)[Man(a1-2)Man(a1-6)]Man(a1-6)[Man(a1-2)Man(a1-2)Man(a1-3)]Man(b1-4)GlcNAc(b1-4)GlcNAc
Summary of the method: as §1

[12] = biological target: Man(a1-2)Man(a1-3)[Man(a1-6)]Man(a1-6)[Man(a1-2)Man(a1-3)]Man(b1-4)GlcNAc(b1-4)GlcNAc
Summary of the method: as §1

[13] = biological target: Man(a1-2)Man(a1-6)[Man(a1-3)]Man(a1-6)[Man(a1-2)Man(a1-2)Man(a1-3)]Man
Summary of the method: as §1

[14] = biological target: Man(a1-2)Man(a1-6)[Man(a1-3)]Man(a1-6)[Man(a1-2)Man(a1-2)Man(a1-3)]Man(b1-4)GlcNAc(b1-4)GlcNAc
Summary of the method: as §1

Man(a1-3)[Man(a1-6)]Man = biological target: Man(a1-3)[Man(a1-6)]Man
Summary of the method: as §1

[15] = biological target: Man(a1-3)[Man(a1-6)]Man(a1-6)[Man(a1-2)Man(a1-3)]Man(b1-4)GlcNAc(b1-4)GlcNAc
Summary of the method: as §1

[16] = biological target: Man(a1-3)[Man(a1-6)]Man(a1-6)[Man(a1-3)]Man
Summary of the method: as §1

[17] = biological target: Man(a1-3)[Man(a1-6)]Man(a1-6)[Man(a1-3)]Man(b1-4)GlcNAc(b1-4)GlcNAc
Summary of the method: as §1

[18] = biological target: Man(a1-3)[Man(a1-6)]Man(b1-4)GlcNAc(b1-4)GlcNAc
Summary of the method: as §1

[19] = biological target: Man(a1-3)[Man(a1-6)]Man(b1-4)GlcNAc(b1-4)[Fuc(a1-6)]GlcNAc
Summary of the method: as §1

Man(a1-6)Man = biological target: Man(a1-6)Man
Summary of the method: as §1

Man(b1-4)GlcNAc = biological target: Man(b1-4)GlcNAc
Summary of the method: as §1

MurNAc(b1-4)GlcNAc = biological target: MurNAc(b1-4)GlcNAc
Summary of the method: as §1

Neu5Ac(a2-3)Gal = biological target: Neu5Ac(a2-3)Gal
Summary of the method: as §1

[20] = biological target: Neu5Ac(a2-3)Gal(b1-3)GalNAc
Summary of the method: as §1

[21] = biological target: Neu5Ac(a2-3)Gal(b1-3)GalNAc(b1-3)Gal(a1-4)Gal(b1-4)Glc
Summary of the method: as §1

[22] = biological target: Neu5Ac(a2-3)Gal(b1-3)GalNAc(b1-4)Gal(b1-4)Glc
Summary of the method: as §1

[23] = biological target: Neu5Ac(a2-3)Gal(b1-3)GalNAc(b1-4)[Neu5Ac(a2-3)]Gal(b1-4)Glc
Summary of the method: as §1

[24] = biological target: Neu5Ac(a2-3)Gal(b1-3)GalNAc(b1-4)[Neu5Ac(a2-8)Neu5Ac(a2-3)]Gal(b1-4)Glc
Summary of the method: as §1

[25] = biological target: Neu5Ac(a2-3)Gal(b1-3)GalNAc6S
Summary of the method: as §1

B1: Epa8 (Candida glabrata) (protein)
chain: MGSSHHHHHHSSGLVPRGSHMASSRALSDYPLGCSPLLGTKLTPGLSMELYEYPLDNHGIGPHCWDPAYLNPEYPRTGFESHKLIGTAQNVMSLNFEHRTQDCHVEFSNLPASFNFPDQITLTNFTMLLYGYFKPKESGRYRFHMEADDLLLMNLGAGNAFDCCAHEATRNNLGDYIAYDIWAGTRKDVEVFLEKEVFYPLRLFFNNRDGRAALDFSYYLNGATEPGTDIPELLFSLPDGESCPAYI
- glycan array binding signal (z-score) [1]: -0.17
- glycan array binding signal (z-score) [2]: -0.995
- glycan array binding signal (z-score) [3]: -0.496
- glycan array binding signal (z-score) [4]: 0.344
- glycan array binding signal (z-score) (GlcNAc(b1-6)GalNAc): -0.238
- glycan array binding signal (z-score) [5]: 0.179
- glycan array binding signal (z-score) (Kdn(a2-3)Gal(b1-3)GalNAc): 1.26
- glycan array binding signal (z-score) (Kdn(a2-3)Gal(b1-3)GlcNAc): 0.921
- glycan array binding signal (z-score) (Kdn(a2-3)Gal(b1-4)Glc): -0.52
- glycan array binding signal (z-score) (Kdn(a2-3)Gal(b1-4)GlcNAc): -0.636
- glycan array binding signal (z-score) [6]: 0.498
- glycan array binding signal (z-score) (Kdn(a2-6)Gal(b1-4)GlcNAc): 0.143
- glycan array binding signal (z-score) [7]: -0.518
- glycan array binding signal (z-score) [8]: 0.082
- glycan array binding signal (z-score) (Man(a1-2)Man(a1-3)Man): -0.876
- glycan array binding signal (z-score) [9]: -0.246
- glycan array binding signal (z-score) [10]: -0.416
- glycan array binding signal (z-score) [11]: -0.901
- glycan array binding signal (z-score) [12]: -0.502
- glycan array binding signal (z-score) [13]: -0.553
- glycan array binding signal (z-score) [14]: 0.309
- glycan array binding signal (z-score) (Man(a1-3)[Man(a1-6)]Man): 0.062
- glycan array binding signal (z-score) [15]: 0.887
- glycan array binding signal (z-score) [16]: 0.355
- glycan array binding signal (z-score) [17]: -0.145
- glycan array binding signal (z-score) [18]: -0.093
- glycan array binding signal (z-score) [19]: 2.33
- glycan array binding signal (z-score) (Man(a1-6)Man): 0.434
- glycan array binding signal (z-score) (Man(b1-4)GlcNAc): 0.737
- glycan array binding signal (z-score) (MurNAc(b1-4)GlcNAc): -0.255
- glycan array binding signal (z-score) (Neu5Ac(a2-3)Gal): -0.882
- glycan array binding signal (z-score) [20]: 0.408
- glycan array binding signal (z-score) [21]: -0.171
- glycan array binding signal (z-score) [22]: -0.095
- glycan array binding signal (z-score) [23]: -0.268
- glycan array binding signal (z-score) [24]: -0.292
- glycan array binding signal (z-score) [25]: -0.063
